The values below come from US12686673B2 (Blueprint Medicines Corporation, priority 2020, dated 2026).

Amino acid sequences for entries named in this document (tags omitted). Chains listed by the source or under a name are the forms on record and can include a tag or linker.
UniProt P00533, with tags, fused parts or gaps DUP767-769: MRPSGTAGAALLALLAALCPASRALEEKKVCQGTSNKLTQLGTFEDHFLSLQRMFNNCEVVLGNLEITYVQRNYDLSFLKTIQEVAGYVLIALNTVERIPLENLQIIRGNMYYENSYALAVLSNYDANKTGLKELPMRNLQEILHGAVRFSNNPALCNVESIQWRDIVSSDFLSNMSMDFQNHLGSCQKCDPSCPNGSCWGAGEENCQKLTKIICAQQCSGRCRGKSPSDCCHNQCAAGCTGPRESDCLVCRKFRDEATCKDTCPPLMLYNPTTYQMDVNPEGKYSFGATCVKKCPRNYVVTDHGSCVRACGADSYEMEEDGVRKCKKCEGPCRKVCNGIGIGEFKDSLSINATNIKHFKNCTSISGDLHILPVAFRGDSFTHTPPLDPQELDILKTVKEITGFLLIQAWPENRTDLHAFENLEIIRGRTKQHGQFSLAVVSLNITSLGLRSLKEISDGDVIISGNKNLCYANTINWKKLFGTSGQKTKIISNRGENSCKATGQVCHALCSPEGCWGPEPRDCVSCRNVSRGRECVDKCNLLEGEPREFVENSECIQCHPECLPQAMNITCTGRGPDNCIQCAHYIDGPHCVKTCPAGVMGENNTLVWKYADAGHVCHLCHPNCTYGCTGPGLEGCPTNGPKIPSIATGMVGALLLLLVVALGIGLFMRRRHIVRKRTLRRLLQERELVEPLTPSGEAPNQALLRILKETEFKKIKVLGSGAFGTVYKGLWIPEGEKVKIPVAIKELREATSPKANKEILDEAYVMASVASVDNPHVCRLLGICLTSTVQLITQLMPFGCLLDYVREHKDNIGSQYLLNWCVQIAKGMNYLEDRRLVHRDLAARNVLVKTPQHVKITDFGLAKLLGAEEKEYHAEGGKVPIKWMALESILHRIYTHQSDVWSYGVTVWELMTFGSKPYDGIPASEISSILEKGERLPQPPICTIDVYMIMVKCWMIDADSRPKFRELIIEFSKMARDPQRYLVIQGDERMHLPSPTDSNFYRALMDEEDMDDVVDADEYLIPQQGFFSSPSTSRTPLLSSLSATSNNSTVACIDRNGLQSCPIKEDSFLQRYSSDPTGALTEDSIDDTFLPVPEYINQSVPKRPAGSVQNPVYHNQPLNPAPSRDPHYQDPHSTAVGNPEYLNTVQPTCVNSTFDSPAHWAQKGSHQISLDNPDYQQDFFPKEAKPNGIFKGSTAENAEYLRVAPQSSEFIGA
UniProt P00533, with tags, fused parts or gaps DUP768-770: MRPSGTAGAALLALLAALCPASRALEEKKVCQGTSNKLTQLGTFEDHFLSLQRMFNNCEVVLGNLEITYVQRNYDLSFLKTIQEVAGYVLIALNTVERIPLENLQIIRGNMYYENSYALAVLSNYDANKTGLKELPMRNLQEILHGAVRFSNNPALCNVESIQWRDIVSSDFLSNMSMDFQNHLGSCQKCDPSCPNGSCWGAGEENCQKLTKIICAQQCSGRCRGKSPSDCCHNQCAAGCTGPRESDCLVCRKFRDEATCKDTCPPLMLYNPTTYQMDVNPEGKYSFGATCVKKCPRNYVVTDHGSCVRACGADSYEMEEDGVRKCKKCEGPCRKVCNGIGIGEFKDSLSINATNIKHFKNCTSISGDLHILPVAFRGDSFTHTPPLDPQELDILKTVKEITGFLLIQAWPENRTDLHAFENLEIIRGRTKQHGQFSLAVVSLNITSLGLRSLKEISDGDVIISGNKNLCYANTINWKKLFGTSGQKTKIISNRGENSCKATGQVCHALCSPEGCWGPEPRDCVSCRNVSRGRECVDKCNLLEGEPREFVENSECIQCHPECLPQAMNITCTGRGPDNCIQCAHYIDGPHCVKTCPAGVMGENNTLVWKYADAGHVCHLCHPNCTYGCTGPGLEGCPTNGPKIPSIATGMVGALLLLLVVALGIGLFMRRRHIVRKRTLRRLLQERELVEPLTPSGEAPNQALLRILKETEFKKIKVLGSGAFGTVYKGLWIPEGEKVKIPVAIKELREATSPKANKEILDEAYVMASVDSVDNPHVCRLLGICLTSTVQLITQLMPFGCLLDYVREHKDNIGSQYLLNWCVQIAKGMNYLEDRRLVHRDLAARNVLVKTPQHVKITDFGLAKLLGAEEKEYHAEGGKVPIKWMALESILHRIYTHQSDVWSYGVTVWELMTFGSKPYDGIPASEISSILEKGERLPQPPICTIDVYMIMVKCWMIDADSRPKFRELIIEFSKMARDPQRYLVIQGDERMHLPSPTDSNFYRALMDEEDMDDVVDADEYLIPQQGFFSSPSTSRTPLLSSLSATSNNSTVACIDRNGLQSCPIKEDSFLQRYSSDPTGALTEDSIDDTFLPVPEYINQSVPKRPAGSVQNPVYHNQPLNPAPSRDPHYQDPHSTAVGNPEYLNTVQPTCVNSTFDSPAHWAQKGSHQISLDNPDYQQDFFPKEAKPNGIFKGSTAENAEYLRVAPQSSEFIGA
UniProt P04626, with tags, fused parts or gaps DUP772-775: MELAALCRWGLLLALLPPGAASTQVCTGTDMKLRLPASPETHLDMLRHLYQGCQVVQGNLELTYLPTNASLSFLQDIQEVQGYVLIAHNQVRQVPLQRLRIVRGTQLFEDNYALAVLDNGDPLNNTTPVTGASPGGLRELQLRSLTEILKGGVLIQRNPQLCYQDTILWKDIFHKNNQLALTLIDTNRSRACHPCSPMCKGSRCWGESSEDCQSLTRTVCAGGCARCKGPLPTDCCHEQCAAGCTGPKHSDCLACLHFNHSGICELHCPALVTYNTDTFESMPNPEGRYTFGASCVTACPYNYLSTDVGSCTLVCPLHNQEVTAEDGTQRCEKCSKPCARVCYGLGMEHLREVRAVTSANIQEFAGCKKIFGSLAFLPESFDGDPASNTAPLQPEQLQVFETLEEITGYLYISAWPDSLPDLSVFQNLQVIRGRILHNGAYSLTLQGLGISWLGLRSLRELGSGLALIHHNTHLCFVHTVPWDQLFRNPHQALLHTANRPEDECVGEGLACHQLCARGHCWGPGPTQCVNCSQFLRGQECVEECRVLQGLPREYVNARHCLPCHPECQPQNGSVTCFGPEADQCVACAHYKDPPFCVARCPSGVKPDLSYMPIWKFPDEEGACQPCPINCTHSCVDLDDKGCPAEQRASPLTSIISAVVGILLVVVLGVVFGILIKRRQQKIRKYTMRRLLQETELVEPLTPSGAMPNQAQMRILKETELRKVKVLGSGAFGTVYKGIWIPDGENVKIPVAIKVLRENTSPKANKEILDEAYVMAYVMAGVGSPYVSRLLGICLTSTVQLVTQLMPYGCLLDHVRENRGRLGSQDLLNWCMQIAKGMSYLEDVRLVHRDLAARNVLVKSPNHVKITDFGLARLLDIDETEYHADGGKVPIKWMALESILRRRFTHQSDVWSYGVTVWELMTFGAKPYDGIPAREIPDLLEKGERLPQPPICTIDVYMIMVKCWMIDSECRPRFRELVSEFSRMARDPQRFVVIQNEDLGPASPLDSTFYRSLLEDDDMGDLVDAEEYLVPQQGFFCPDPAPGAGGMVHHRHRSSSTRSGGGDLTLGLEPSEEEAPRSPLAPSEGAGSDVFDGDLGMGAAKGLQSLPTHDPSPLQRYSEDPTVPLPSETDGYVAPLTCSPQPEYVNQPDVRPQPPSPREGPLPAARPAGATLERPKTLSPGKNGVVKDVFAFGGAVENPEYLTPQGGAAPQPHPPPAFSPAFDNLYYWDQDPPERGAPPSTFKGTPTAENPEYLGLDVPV

The match of structure and compound is tentative.

Holding throughout (format): cell-based
Assay [1] addresses EGFR(D770_N771insSVD) expressing Ba/F3 stable cell line (Homo sapiens, UniProt P00533, DUP768-770, cells depend on it). The assay can be described thus: Cellular proliferation (Alamar Blue) assay, EGFR D770_N771insSVD Ba/F3. The note with it: read-out: D770 IC50, 72 hr, tested form: TFA. A general note: The colour change of resazurin is a common sign of viable cells or microbes.

The target in assay [2] is EGFR (A767_dupASV) expressing Ba/F3 stable cell line (Homo sapiens, UniProt P00533, DUP767-769, cells depend on it). The assay can be described thus: Cellular proliferation (Alamar Blue) assay, EGFR A767_dupASV Ba/F3. The note with it: read-out: A767 IC50, 72 hr, tested form: TFA.
The subject of a further assay is A431 cells. The assay can be described thus: Cellular proliferation (Alamar Blue) assay, A431. The settings on record: read-out: A431 IC50, 72 hr, tested form: TFA.
Assay [3] deals with HER2 (A775_G776insYVMA) expressing Ba/F3 stable cell line (Homo sapiens, UniProt P04626, DUP772-775, cells depend on it). The assay can be described thus: Cellular proliferation (Alamar Blue) assay, HER2 A775_G776insYVMA Ba/F3. The note with it: read-out: YVMA IC50, 72 hr, tested form: TFA.

For the compound `C=CC(=O)Nc1ccc(F)c(Nc2nc(Nc3cnn(CCOC)c3)ncc2-c2ccc(C(F)(F)F)cc2)c1`, the GI50 in assay [1] is 113 nM; in assay [2], 441 nM. In addition, the IC50 – broadly, the midpoint of a concentration-inhibition curve – in the assay on A431 cells is 98 nM.
With `C=CC(=O)Nc1ccc(F)c(Nc2nc(Nc3cnn(C)c3)ncc2-c2ccccc2Cl)c1` [Compound 150, N-(3-((5-(2-chlorophenyl)-2-((1-methyl-1H-pyrazol-4-yl)amino)pyrimidin-4-yl)amino)-4-fluorophenyl)acrylamide 2,2,2-trifluoroacetate], the GI50 in assay [3] stood at 2140 nM.
